PubChem BioAssay AID743454, Peter MacCallum Cancer Centre, 2014
Aim: 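Knock-downs lowering viability or raising caspase 3/7 activity in vorinostat-treated resistant cells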 (primary screen). Cells: human HCT116-VR colon cancer cells, selected for vorinostat resistance. Reagent: siRNA pool against human genes, 40 nM siRNA pool. Duration: vorinostat for 24 h, read-out about 72 h after transfection. Treatment: vorinostat at 2.5 µM final. Measured: 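Cell viability by CellTiter-Fluor and caspase 3/7 activity by luminescence, each scaled to mock wells per plate, duplicates averaged, then robust z-scored over all plates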. Reading the numbers: viability robust z-score: higher = more viable cells than screen typical; caspase robust z-score: higher = more caspase 3/7 activity than screen typical. Active means: 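a knock-down is a hit when classed RV1 or RV2 for lowered viability, or CA1 or CA2 for caspase activation; those lethal without drug were dropped; hits were retested singly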.
The deposit covers about 18,000 reagents; below is a part drawn at random. Of all reagents, 450 (2.5%) were called active. 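Single biological run; no consistent viability z cut-off exists, so the class columns, not z-scores, define the calls.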 No sequences are given here.

How did the screen score BAGE4 (BAGE family member 4) [SID135623554]?
viability hit class: no change; caspase hit class: no change; viability robust z-score: -2.5; caspase robust z-score: 2.31; activity call: inactive

For IGFBP7 (insulin like growth factor binding protein 7) [SID135621617], how do the results read?
viability hit class: no change; caspase hit class: no change; viability robust z-score: 0.02; caspase robust z-score: 0.36; activity call: inactive

With HTT (huntingtin) [SID152153018], what was measured?
viability hit class: no change; caspase hit class: no change; viability robust z-score: 0.78; caspase robust z-score: -0.63; activity call: inactive

What did the screen give for TAF1C [SID134316438]?
viability hit class: no change; caspase hit class: no change; viability robust z-score: -0.48; caspase robust z-score: -0.54; activity call: inactive

For SLC35F6 [SID152155601], what does the deposit list?
viability hit class: no change; caspase hit class: no change; viability robust z-score: -0.19; caspase robust z-score: -0.85; activity call: inactive

What is on record for P3H2 (prolyl 3-hydroxylase 2) [SID134310352]?
viability hit class: no change; caspase hit class: no change; viability robust z-score: -0.47; caspase robust z-score: -0.32; activity call: inactive

What is on record for PDF (peptide deformylase, mitochondrial) [SID135620748]?
viability hit class: no change; caspase hit class: no change; viability robust z-score: 1.52; caspase robust z-score: -0.62; activity call: inactive

With CAV1 (caveolin 1) [SID134309914], how do the results read?
viability hit class: no change; caspase hit class: no change; viability robust z-score: -0.18; caspase robust z-score: -1.07; activity call: inactive

For TXNDC11 (thioredoxin domain containing 11) [SID152150225], what was measured?
viability hit class: no change; caspase hit class: no change; viability robust z-score: 0.44; caspase robust z-score: 2.07; activity call: inactive

With STX18 (syntaxin 18) [SID134324296], what does the deposit list?
viability hit class: no change; caspase hit class: no change; viability robust z-score: 0.24; caspase robust z-score: -0.46; activity call: inactive

For CDX2 (caudal type homeobox 2) [SID134319666], what does the deposit list?
viability hit class: no change; caspase hit class: no change; viability robust z-score: 1.44; caspase robust z-score: -0.31; activity call: inactive

For SPPL3 (signal peptide peptidase like 3) [SID135621127], what was measured?
viability hit class: no change; caspase hit class: no change; viability robust z-score: -0.13; caspase robust z-score: 4.78; activity call: inactive

With HPS1 (HPS1 biogenesis of lysosomal organelles complex 3 subunit 1) [SID134315418], how do the results read?
viability hit class: no change; caspase hit class: no change; viability robust z-score: 1.09; caspase robust z-score: 1.71; activity call: inactive

With CDC42EP2 (CDC42 effector protein 2) [SID134316504], what was measured?
viability hit class: no change; caspase hit class: no change; viability robust z-score: -0.04; caspase robust z-score: -0.46; activity call: inactive

What did the screen give for OR1C1 (olfactory receptor family 1 subfamily C member 1) [SID135624237]?
viability hit class: no change; caspase hit class: no change; viability robust z-score: 0.45; caspase robust z-score: -0.11; activity call: inactive

How did the screen score GHITM (growth hormone inducible transmembrane protein) [SID135624005]?
viability hit class: no change; caspase hit class: no change; viability robust z-score: 0.8; caspase robust z-score: 0.05; activity call: inactive

How did the screen score CBY2 (chibby family member 2) [SID134319628]?
viability hit class: no change; caspase hit class: no change; viability robust z-score: 0.7; caspase robust z-score: 1.7; activity call: inactive

With COX8C (cytochrome c oxidase subunit 8C) [SID152149993], what was measured?
viability hit class: no change; caspase hit class: no change; viability robust z-score: -1.06; caspase robust z-score: 2.22; activity call: inactive

For JUND (JunD proto-oncogene, AP-1 transcription factor subunit) [SID135620752], how do the results read?
viability hit class: no change; caspase hit class: no change; viability robust z-score: -1.35; caspase robust z-score: 1.16; activity call: inactive

For MAN2B1 (mannosidase alpha class 2B member 1) [SID152149533], what was measured?
viability hit class: no change; caspase hit class: no change; viability robust z-score: 0.1; caspase robust z-score: -0.36; activity call: inactive

Which result is listed for OSBPL7 (oxysterol binding protein like 7) [SID135621727]?
viability hit class: no change; caspase hit class: no change; viability robust z-score: 0.05; caspase robust z-score: -0.64; activity call: inactive
